# In the supplement of paper PMC4635364:
# This is one part of the list. This data set is noisy: repeats of one test often differ as much as different tests do.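 Human fetal ventral-midbrain neural progenitor line ReNCell VM, differentiated without mitogens. Images stained for doublecortin (early neurons) or tyrosine hydroxylase (dopaminergic neurons) were scored by blinded raters against untreated wells (0 = no change). Repeats and both raters were averaged, and compounds averaging 2 or higher were picked as hits for retesting.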
# Legend:
# ReNCell VM [1] = assay: neuronal differentiation score (DCX+ cell fraction vs untreated, manual image score) (score (-3 to 3)); higher = more neuronal differentiation; conditions: 2 uM, 2 weeks
# ReNCell VM [2] = assay: dopaminergic neuron differentiation score (TH+ cell fraction vs untreated, manual image score) (score (0 to 3)); higher = more TH+ dopaminergic neuron differentiation; conditions: 2 uM, 4 weeks, BDNF 10 ng/ml + GDNF 10 ng/ml
smiles,measurement,setting,value
CCCc1nc(C(C)(C)O)c(C(=O)O)n1Cc1ccc(-c2ccccc2-c2nnn[nH]2)cc1,neuronal differentiation score,ReNCell VM [1]; library: Spectrum,inactive: 0
same,dopaminergic neuron differentiation score,ReNCell VM [2]; library: Spectrum,inactive: 0
C=C1CC=C(C)CC[C@@H]2[C@@H]1CC2(C)C,neuronal differentiation score,ReNCell VM [1]; library: Spectrum,inactive: 0
same,dopaminergic neuron differentiation score,ReNCell VM [2]; library: Spectrum,inactive: 0
C[C@H]1c2cccc(O)c2C(=O)C2=C(O)[C@]3(O)C(=O)C(C(N)=O)=C(O)[C@@H](N(C)C)[C@@H]3[C@@H](O)[C@@H]21,neuronal differentiation score,ReNCell VM [1]; library: Spectrum,active: 3
same,dopaminergic neuron differentiation score,ReNCell VM [2]; library: Spectrum,inactive: 0
OC[C@H]1O[C@@H](OCCc2ccc(O)cc2)[C@H](O)[C@@H](O)[C@@H]1O,neuronal differentiation score,ReNCell VM [1]; library: Spectrum,inactive: 0
same,dopaminergic neuron differentiation score,ReNCell VM [2]; library: Spectrum,inactive: 0
O=C(O)Cc1nn(Cc2ccc(Br)cc2F)c(=O)c2ccccc12 [Statil],neuronal differentiation score,ReNCell VM [1]; library: Tocriscreen,inactive: 0
same,dopaminergic neuron differentiation score,ReNCell VM [2]; library: Tocriscreen,inactive: 0
CC(C)=CCc1c(O)cc2oc(C)cc(=O)c2c1O,neuronal differentiation score,ReNCell VM [1]; library: Spectrum,inactive: -1
same,dopaminergic neuron differentiation score,ReNCell VM [2]; library: Spectrum,inactive: 0
O=C[C@H](O)[C@H](O)CO,neuronal differentiation score,ReNCell VM [1]; library: Spectrum,inactive: 0
same,dopaminergic neuron differentiation score,ReNCell VM [2]; library: Spectrum,inactive: 0
COc1ccc(C(=O)CC(=O)c2ccc(C(C)(C)C)cc2)cc1,neuronal differentiation score,ReNCell VM [1]; library: Spectrum,inactive: 0
same,dopaminergic neuron differentiation score,ReNCell VM [2]; library: Spectrum,inactive: 0
"CC(=O)NC(CC(=O)O)C(=O)O (racemic) [Aspartic acid, N-acetyl (R,S)]",neuronal differentiation score,ReNCell VM [1]; library: Phytochemical,inactive: 0
same,dopaminergic neuron differentiation score,ReNCell VM [2]; library: Phytochemical,inactive: 0
Cc1ccccc1C(OCCN(C)C)c1ccccc1 (stereo unspecified),neuronal differentiation score,ReNCell VM [1]; library: Spectrum,inactive: 0
same,dopaminergic neuron differentiation score,ReNCell VM [2]; library: Spectrum,inactive: 0
COc1ccc(-n2nc(CCC(=O)N(C)O)cc2-c2ccc(Cl)cc2)cc1,neuronal differentiation score,ReNCell VM [1]; library: Spectrum,inactive: 0
same,dopaminergic neuron differentiation score,ReNCell VM [2]; library: Spectrum,inactive: 0
CC(C)[C@H]1CC[C@H](C(=O)N[C@H](Cc2ccccc2)C(=O)O)CC1,neuronal differentiation score,ReNCell VM [1]; library: Spectrum,inactive: 0
same,dopaminergic neuron differentiation score,ReNCell VM [2]; library: Spectrum,inactive: 0
CC(C)=CCC1=C(O)C(=O)c2ccccc2C1=O [Lapachol],neuronal differentiation score,ReNCell VM [1]; library: Phytochemical,inactive: 0
same,dopaminergic neuron differentiation score,ReNCell VM [2]; library: Phytochemical,inactive: 0

# Rewritten with bars between the fields: part of the list above.
smiles | measurement | setting | value
CC(C)=CCc1c(O)cc2oc(C)cc(=O)c2c1O | neuronal differentiation score | ReNCell VM [1]; library: Spectrum | inactive: -1
same | dopaminergic neuron differentiation score | ReNCell VM [2]; library: Spectrum | inactive: 0
O=C[C@H](O)[C@H](O)CO | neuronal differentiation score | ReNCell VM [1]; library: Spectrum | inactive: 0
same | dopaminergic neuron differentiation score | ReNCell VM [2]; library: Spectrum | inactive: 0
COc1ccc(C(=O)CC(=O)c2ccc(C(C)(C)C)cc2)cc1 | neuronal differentiation score | ReNCell VM [1]; library: Spectrum | inactive: 0
same | dopaminergic neuron differentiation score | ReNCell VM [2]; library: Spectrum | inactive: 0
